From patent US20240299499A1, “Therapeutic Peptide Formulations” (Eli Lilly and Company, priority 2020, published 2024)
At least one structure is not confirmed: it was looked up by name or label, or the drawing left a doubt.

Assay: Compound 1 fibrillation by thioflavin T (ThT) fluorescence assay
Assay type: physicochemical
Details: for ThT fluorescent signal: spiked with fibril seeds

CC(C)C[C@H](NC(=O)[C@H](CC(C)C)NC(=O)[C@H](Cc1c[nH]c2ccccc12)NC(=O)[C@H](CCC(=O)O)NC(=O)[C@@H](NC(=O)[C@H](Cc1ccccc1)NC(=O)[C@H](CCC(=O)O)NC(=O)[C@H](CCCCNC(=O)COCCOCCNC(=O)COCCOCCNC(=O)CC[C@H](NC(=O)CCCCCCCCCCCCCCCCCCC(=O)O)C(=O)O)NC(=O)[C@H](C)NC(=O)[C@H](CCCCN)NC(=O)[C@H](CCCCN)NC(=O)[C@H](CCC(=O)O)NC(=O)[C@H](CC(=O)O)NC(=O)[C@H](CC(C)C)NC(=O)[C@H](Cc1ccc(O)cc1)NC(=O)[C@H](CCCCN)NC(=O)[C@H](CO)NC(=O)[C@H](Cc1ccc(O)cc1)NC(=O)[C@H](CC(=O)O)NC(=O)[C@H](CO)NC(=O)[C@@H](NC(=O)[C@H](Cc1ccccc1)NC(=O)[C@@H](NC(=O)CNC(=O)[C@H](CCC(N)=O)NC(=O)C(C)(C)NC(=O)[C@@H](N)Cc1c[nH]cn1)[C@@H](C)O)[C@@H](C)O)C(C)C)C(=O)N[C@@H](CCC(=O)O)C(=O)NCC(=O)NCC(=O)N1CCC[C@H]1C(=O)N[C@@H](CO)C(=O)N[C@@H](CO)C(=O)NCC(N)=O [Compound 1]
ThT fluorescent signal (formulations of pH at 8.0 or lower, 2 and 12 mg/mL): increase in the ThT fluorescent signal
formation of fibrils (pH below 7.8, 2 mg/mL and 12 mg/mL): rapid
ThT fluorescent signal (pH raised above 8.0): remained flat
